According to patent publication US20230241030A1, “MACROGOL 15 HYDROXYSTEARATE FORMULATIONS” (Allergan, Inc., priority 2011, published 2023):
The name of at least one read-out is uncertain.

Test: Cmpd 3 formulation stability (% recovery)
Type: physicochemical
[1] = 1% PS80 @ pH 5.5, 0.0075% Cmpd 3, 25° C.
[2] = 1% PS80 @ pH 5.5, 0.0075% Cmpd 3, 40° C.
[3] = 1% PS80 @ pH 5.5, 0.0075% Cmpd 3, 60° C.
[4] = 1% Solutol @ pH 6.5, 0.010% Cmpd 3, 25° C.
[5] = 1% Solutol @ pH 6.5, 0.010% Cmpd 3, 40° C.
[6] = 1% Solutol @ pH 6.5, 0.010% Cmpd 3, 60° C.
[7] = 1% Solutol @pH 5.5, 0.0075% Cmpd 3, 25° C.
[8] = 1% Solutol @pH 5.5, 0.0075% Cmpd 3, 40° C.
[9] = 1% Solutol @pH 5.5, 0.0075% Cmpd 3, 60° C.
[10] = w/o Solutol @ pH 5.5, 0.0075% Cmpd 3, 25° C.
[11] = w/o Solutol @ pH 5.5, 0.0075% Cmpd 3, 40° C.
[12] = w/o Solutol @ pH 5.5, 0.0075% Cmpd 3, 60° C.
[13] = w/o Solutol @ pH 6.5, 0.010% Cmpd 3, 25° C.
[14] = w/o Solutol @ pH 6.5, 0.010% Cmpd 3, 40° C.
[15] = w/o Solutol @ pH 6.5, 0.010% Cmpd 3, 60° C.

In the case of `Cc1c(COC(=O)C(C)C)cccc1[C@H](C)c1c[nH]cn1` [Cmpd 3, 3-[(1S)-1-(1H-imidazol-4-yl)ethyl]-2-methylbenzyl 2-methylpropanoate], the “% Recovery at 1 month (n = 1)” value [1] is reported as 96.2%, the “% Recovery at 2 months (n = 1)” value [1] is reported as 88.7% and the “% Recovery at 3 months (n = 1)” value [1] is reported as 78.6%. For the same molecule, the “% Recovery at 1 month (n = 1)” value [2] was 70.1%, the “% Recovery at 2 months (n = 1)” value [2] was 22.5% and the “% Recovery at 3 months (n = 1)” value [2] was 13.9%. For the same molecule, the “% Recovery at 1 month (n = 1)” value [3] was 16.3%, the “% Recovery at 2 months (n = 1)” value [3] was 16.5% and the “% Recovery at 3 months (n = 1)” value [3] was 9.9%. The “% Recovery at 1 month (n = 1)” value [4] was 96.6%, the “% Recovery at 2 months (n = 1)” value [4] was 96.3% and the “% Recovery at 3 months (n = 1)” value [4] was 97.4%. For the same molecule, the “% Recovery at 1 month (n = 1)” value [5] was 93.3%, the “% Recovery at 2 months (n = 1)” value [5] was 90.3% and the “% Recovery at 3 months (n = 1)” value [5] was 88.7%. The “% Recovery at 1 month (n = 1)” value [6] was 81.6%, the “% Recovery at 2 months (n = 1)” value [6] was 68.3% and the “% Recovery at 3 months (n = 1)” value [6] was 61.4%. The “% Recovery at 1 month (n = 1)” value [7] was 100.3%, the “% Recovery at 2 months (n = 1)” value [7] was 101.6% and the “% Recovery at 3 months (n = 1)” value [7] was 101.3%. For the same molecule, the “% Recovery at 1 month (n = 1)” value [8] was 95.3%, the “% Recovery at 2 months (n = 1)” value [8] was 96.3% and the “% Recovery at 3 months (n = 1)” value [8] was 94.0%. The “% Recovery at 1 month (n = 1)” value [9] was 86.4%, the “% Recovery at 2 months (n = 1)” value [9] was 70.1% and the “% Recovery at 3 months (n = 1)” value [9] was 63.5%. The “% Recovery at 1 month (n = 1)” value [10] was 96.9%, the “% Recovery at 2 months (n = 1)” value [10] was 98.9% and the “% Recovery at 3 months (n = 1)” value [10] was 97.1%. For the same molecule, the “% Recovery at 1 month (n = 1)” value [11] was 95.0%, the “% Recovery at 2 months (n = 1)” value [11] was 97.2% and the “% Recovery at 3 months (n = 1)” value [11] was 94.6%. For the same molecule, the “% Recovery at 1 month (n = 1)” value [12] was 86.3%, the “% Recovery at 2 months (n = 1)” value [12] was 77.6% and the “% Recovery at 3 months (n = 1)” value [12] was 66.0%. For the same molecule, the “% Recovery at 1 month (n = 1)” value [13] was 96.0%, the “% Recovery at 2 months (n = 1)” value [13] was 94.9% and the “% Recovery at 3 months (n = 1)” value [13] was 95.1%. For the same molecule, the “% Recovery at 1 month (n = 1)” value [14] was 87.5%, the “% Recovery at 2 months (n = 1)” value [14] was 80.1% and the “% Recovery at 3 months (n = 1)” value [14] was 73.8%. The “% Recovery at 1 month (n = 1)” value [15] was 58.4%, the “% Recovery at 2 months (n = 1)” value [15] was 34.6% and the “% Recovery at 3 months (n = 1)” value [15] was 19.1%.
